PubChem BioAssay AID1259308 – NCATS – 2017

Assay: 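Knock-downs that increase output of a recombinant reporter protein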 (primary screen)
Cells: human HEK293 embryonic kidney cells stably expressing firefly luciferase (HEK-CMV-Luc2-Hygro)
Knock-down reagent: single siRNA against human genes, 0.8 pmol siRNA per well
Time to read-out: 72 h
Measured: 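Reporter luminescence and viable-cell signal on separate replicate plates, given as percent of non-targeting control and median/MAD z-scores, plus per-cell luciferase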
Reading the numbers: total luciferase, z-score and total luciferase, % of control: higher = more reporter protein produced; luciferase per cell, z-score: higher = more reporter output per viable cell; viable cells, % of control: higher = more viable cells
Rule for the call: 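Active when the median/MAD z-score for overall luciferase is greater than 3; a gene was taken forward for validation with new siRNAs if at least two of its three siRNAs passed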
Meaning of the calls: active = raised luciferase; inactive = no rise
The deposit covers about 59,000 reagents; below is an unselected part. About 1,510 of them (2.6%) were called active. 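Calls use total luciferase alone and ignore viability, so some active siRNAs may act by altering cell number.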 Unmarked entries are inactive.

gene,PubChem SID,"total luciferase, z-score","total luciferase, % of control","luciferase per cell, z-score","viable cells, % of control"
ZNF512B,SID160746049,-0.501,71.9,-0.872,101
ZNF512B,SID160746050,1.57,113,2.48,65.7
ZNF512B,SID160746051,-0.311,75.7,-0.392,93.8
CLIC3,SID160721285,1.7,116,1.26,92.7
CLIC3,SID160721286,-0.18,78.3,-0.509,100
CLIC3,SID160732121,2.3,128,1.37,99.4
LEP,SID160776569,0.466,91.2,0.515,88.9
LEP,SID160776570,2.37,129,1.48,97.6
LEP,SID160776571,1.01,102,1.87,69.6
BPNT1,SID160728284,-0.94,63.2,-0.585,82.4
BPNT1,SID160728285,-0.167,78.6,-0.7,106
BPNT1,SID160728286,0.0151,82.2,-0.234,97.7
RPL36AP31,SID160733762,-0.0807,80.3,0.212,84.8
RPL36AP31,SID160768540,0.595,93.7,0.669,87.8
RPL36AP31,SID160768541,1.19,106,0.489,104
SF3B5,SID160735029,3.85 (active),158,4.44,55.1
SF3B5,SID160751110,1.03,102,2.85,54
SF3B5,SID160751111,1.38,109,3.25,51.9
PNN,SID160714573,-0.696,68.1,0.319,69.9
PNN,SID160714574,1.17,105,1.69,75.2
PNN,SID160714575,-0.787,66.2,-0.871,93.1
FOXM1,SID160766204,-0.757,66.8,-0.0492,75.6
FOXM1,SID160766210,-0.771,66.6,-0.824,92.4
FOXM1,SID160766221,1.26,107,1.28,85.4

3 entries already listed, ordered by “viable cells, % of control”, high to low.
gene,PubChem SID,"total luciferase, z-score","total luciferase, % of control","luciferase per cell, z-score","viable cells, % of control"
FOXM1,SID160766210,-0.771,66.6,-0.824,92.4
FOXM1,SID160766221,1.26,107,1.28,85.4
FOXM1,SID160766204,-0.757,66.8,-0.0492,75.6
